# Source: patent US10100022B2, “Sphingosine kinase inhibitors” (University of Virginia Patent Foundation, priority 2014, dated 2018)
# Amino acid sequences for entries named in this document (tags omitted).
# UniProt Q9NRA0, whole entry: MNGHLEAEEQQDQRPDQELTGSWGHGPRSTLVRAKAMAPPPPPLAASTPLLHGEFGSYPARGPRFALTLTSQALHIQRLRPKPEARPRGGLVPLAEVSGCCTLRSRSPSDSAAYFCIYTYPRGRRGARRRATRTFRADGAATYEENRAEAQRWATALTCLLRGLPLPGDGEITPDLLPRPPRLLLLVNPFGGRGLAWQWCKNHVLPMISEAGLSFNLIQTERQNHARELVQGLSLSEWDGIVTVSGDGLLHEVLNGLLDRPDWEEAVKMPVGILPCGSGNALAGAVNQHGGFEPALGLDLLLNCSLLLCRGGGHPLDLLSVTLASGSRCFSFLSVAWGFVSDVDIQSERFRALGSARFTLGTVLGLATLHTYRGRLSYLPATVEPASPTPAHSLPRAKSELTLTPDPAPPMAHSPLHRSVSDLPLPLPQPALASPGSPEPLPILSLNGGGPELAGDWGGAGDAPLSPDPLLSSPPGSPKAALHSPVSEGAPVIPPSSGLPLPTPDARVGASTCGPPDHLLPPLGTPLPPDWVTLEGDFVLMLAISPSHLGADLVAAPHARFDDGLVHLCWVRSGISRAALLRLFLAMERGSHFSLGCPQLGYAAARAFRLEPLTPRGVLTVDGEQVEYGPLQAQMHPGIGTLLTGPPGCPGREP
# UniProt Q9NYA1, whole entry: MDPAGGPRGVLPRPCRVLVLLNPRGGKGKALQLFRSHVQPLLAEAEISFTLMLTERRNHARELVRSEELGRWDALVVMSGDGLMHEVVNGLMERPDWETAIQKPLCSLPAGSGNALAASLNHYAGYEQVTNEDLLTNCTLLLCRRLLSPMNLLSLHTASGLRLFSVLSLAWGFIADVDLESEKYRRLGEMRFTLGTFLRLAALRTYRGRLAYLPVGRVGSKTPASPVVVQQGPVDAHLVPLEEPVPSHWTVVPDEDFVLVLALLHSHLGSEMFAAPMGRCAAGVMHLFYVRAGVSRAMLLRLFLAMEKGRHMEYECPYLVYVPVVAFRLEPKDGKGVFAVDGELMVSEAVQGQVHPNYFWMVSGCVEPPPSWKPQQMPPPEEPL
# Assays:
# [1] = biological target: human sphingosine kinase type 2 (hSPHK2) (Homo sapiens, UniProt Q9NRA0); assay: Sphingosine kinase assay, recombinant human SPHK2 ([32P]S1P product, scintillation counting); assay type: biochemical
# [2] = biological target: human sphingosine kinase type 1 (hSPHK1) (Homo sapiens, UniProt Q9NYA1); assay: Sphingosine kinase assay, recombinant human SPHK1 ([32P]S1P product, scintillation counting); assay type: biochemical; conditions: read-out: activity hSPHK1 (range estimate of KI), tested form: TFA
SMILES,"Ki ([1]; read-out: activity hSPHK2 (range estimate of KI), tested form: HCl) [nM]",Ki [2] [nM],"Ki ([1]; read-out: activity hSPHK2 (range estimate of KI), tested form: TFA) [nM]"
CCCCCCCCCn1ccc2cc(-c3noc([C@@H]4CCCN4C(=N)N)n3)ccc21,< 1000,–,–
CCCCC/C=C/COc1ccc(-c2noc([C@@H]3CCCN3C(=N)N)n2)cc1C(F)(F)F,–,> 10000,< 1000

# Where two headings read alike, the source gives them in different places. The structures given here were assigned with low confidence; some may be wrong.
